HELM strings list residues between dots; [ac] is acetyl, [am] amide, other brackets name non-standard units.
Assay: general procedure: Fmoc solid-phase peptide synthesis; 1,4-diaminobutane trityl PS resin (1.5 mmol/g); TentaGel PAMAM and tris dendrimer resins; DIC/HOBt
Details: whole synthesis; for isolated yield: scale of the general procedure 0.3 mmol, 0.33 mmol
[1] = from 1,4-diaminobutane trityl resin

Substance	isolated mass	isolated yield [1]	isolated yield (from TGT alcohol resin)	isolated yield (from 1,4-diaminobutane resin)
SO3Cy5-Tyr-Val-Ala-Asp-Ala-Pro-Val-Lys-diaminobutane peptide	4.3 mg	74%		
FITC-Ala-Lys(Boc)-Leu-Ala-diaminobutane peptide	19.6 mg	54%		
PEPTIDE1{[FITC].A.[Lys(Boc)].L.A}|PEPTIDE2{[FITC].A.[Lys(Boc)].L.A}|CHEM1{[PAMAMcore]}$PEPTIDE1,CHEM1,5:R2-1:R1|PEPTIDE2,CHEM1,5:R2-1:R2$$$V2.0	7.4 mg		9%	
SO3Cy5-Tyr-Val-Ala-Asp-Ala-Pro-Val-Lys-tris dendrimer peptide	2.0 mg			20%
